Experimental findings from US20190201541A1, “ANTI-CD22 ANTIBODY-MAYTANSINE CONJUGATES, COMBINATIONS, AND METHODS OF USE THEREOF” (Triphase Accelerator U.S. Corporation, priority 2017, published 2019) are described below.

SMILES strings stand for the structures.

The data set can be described thus: Cynomolgus and human tissue cross-reactivity studies. Further details: species or system human and cynomolgus monkey. The following applies: human and cynomolgus tissue microarrays.

Turning to `COc1cc2cc(c1Cl)N(C)C(=O)C[C@H](OC(=O)[C@@H](C)N(C)C(=O)CCC(=O)N(CCOCCOCCC(=O)O)C1CCN(C(=O)CCn3c4c(c5ccccc53)C(C)N(C)N(C)C4)CC1)[C@]1(C)OC1[C@H](C)[C@@H]1CC(O)(NC(=O)O1)[C@H](OC)/C=C/C=C(\C)C2` (stereo partly drawn) [anti-CD22 ADC], the tissue cross-reactivity profile result was “B cell-specific reactivity”.
